Publication PMC10076330
No constants are given. Whether binding was seen depends on the method and setting. In cells and extracts the contact can be indirect. Some entries that bind do so weakly or less than the wild type. Values belong to the molecule of their own block, whether it stands above or below them.

Amino acid sequences for entries named in this document (tags omitted).
UniProt P63279: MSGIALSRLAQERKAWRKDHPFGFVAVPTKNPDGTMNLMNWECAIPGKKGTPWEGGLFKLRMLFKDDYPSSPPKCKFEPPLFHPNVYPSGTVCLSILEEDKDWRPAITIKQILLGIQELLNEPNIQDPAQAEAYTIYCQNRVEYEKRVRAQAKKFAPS
UniProt P36405: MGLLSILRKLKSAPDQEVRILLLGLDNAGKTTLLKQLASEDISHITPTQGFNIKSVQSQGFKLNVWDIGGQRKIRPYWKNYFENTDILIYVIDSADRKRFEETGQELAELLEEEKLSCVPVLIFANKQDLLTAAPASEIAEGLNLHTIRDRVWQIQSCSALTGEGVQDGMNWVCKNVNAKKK

Legend:
[1] = molecular target: UBC9 (SUMO-conjugating enzyme), endogenous (human (endogenous in RCTE)) (UniProt P63279); assay: co-IP; endogenous proteins in RCTE cell lysate; IP buffer (25 mM Tris-HCl pH 7.4, 10 mM KCl, 1.5 mM MgCl2, 1 mM EDTA, 1 mM EGTA, 150 mM NaCl, 0.5% NP-40); primary antibody or IgG control with protein-G beads overnight at 4 °C; western blot; cells with or without irradiation (day 7), WT, ARL3-/- or ARL13B-deficient cells
[2] = molecular target: T1, FBF1 (transition fiber protein), endogenous (human (endogenous in RCTE)) (UniProt Q8TES7); assay: as above
T1 sequence: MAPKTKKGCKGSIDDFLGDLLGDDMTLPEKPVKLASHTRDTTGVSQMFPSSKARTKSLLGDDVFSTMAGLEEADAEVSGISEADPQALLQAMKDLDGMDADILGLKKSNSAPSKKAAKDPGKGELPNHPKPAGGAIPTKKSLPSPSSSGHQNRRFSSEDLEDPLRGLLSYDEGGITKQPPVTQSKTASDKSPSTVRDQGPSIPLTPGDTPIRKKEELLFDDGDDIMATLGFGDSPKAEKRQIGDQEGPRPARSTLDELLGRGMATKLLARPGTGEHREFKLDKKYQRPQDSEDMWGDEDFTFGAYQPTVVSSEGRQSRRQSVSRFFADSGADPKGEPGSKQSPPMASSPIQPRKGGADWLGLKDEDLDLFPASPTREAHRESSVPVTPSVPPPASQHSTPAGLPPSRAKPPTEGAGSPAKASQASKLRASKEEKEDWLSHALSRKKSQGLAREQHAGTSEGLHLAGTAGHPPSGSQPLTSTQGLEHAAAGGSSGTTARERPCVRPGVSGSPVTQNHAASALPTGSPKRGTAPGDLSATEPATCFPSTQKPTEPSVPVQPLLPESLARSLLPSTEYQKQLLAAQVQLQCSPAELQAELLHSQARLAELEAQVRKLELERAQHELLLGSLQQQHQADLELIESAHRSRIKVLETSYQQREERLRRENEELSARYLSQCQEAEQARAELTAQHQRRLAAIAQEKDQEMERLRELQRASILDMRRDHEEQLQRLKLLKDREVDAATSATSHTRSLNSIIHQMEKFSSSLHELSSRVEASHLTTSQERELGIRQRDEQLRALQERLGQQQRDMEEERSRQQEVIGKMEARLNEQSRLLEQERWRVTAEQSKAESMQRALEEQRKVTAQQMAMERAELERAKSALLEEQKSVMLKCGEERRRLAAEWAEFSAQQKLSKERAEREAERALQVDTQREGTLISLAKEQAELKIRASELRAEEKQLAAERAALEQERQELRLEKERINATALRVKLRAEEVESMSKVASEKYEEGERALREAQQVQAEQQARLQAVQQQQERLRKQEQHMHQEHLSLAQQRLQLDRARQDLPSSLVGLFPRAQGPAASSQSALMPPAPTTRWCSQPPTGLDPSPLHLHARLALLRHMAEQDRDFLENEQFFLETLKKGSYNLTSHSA

[3] = molecular target: Flag-UBC9 (human) (UniProt P63279); assay: co-IP; lysate of transfected HEK293T cells; IP buffer (25 mM Tris-HCl pH 7.4, 10 mM KCl, 1.5 mM MgCl2, 1 mM EDTA, 1 mM EGTA, 150 mM NaCl, 0.5% NP-40); protein-G beads overnight at 4 °C; western blot; with or without overexpressed ARL3 (Fig. 4h)
[4] = molecular target: UBC9 (SUMO-conjugating enzyme), endogenous (human (endogenous in RCTE)) (UniProt P63279); assay: co-IP; RCTE cells overexpressing Myc-ARL3 WT, DA or DN, day 7 after irradiation; endogenous UBC9 immunoprecipitated with Myc-ARL3 or FBF1; western blot
[5] = molecular target: UBC9 (SUMO-conjugating enzyme), endogenous (human (endogenous in RCTE)) (UniProt P63279); assay: as above; remark: listed apart in the source
[6] = molecular target: UBC9 (SUMO-conjugating enzyme), endogenous (human (endogenous in RCTE)) (UniProt P63279); assay: co-IP; endogenous proteins in RCTE cell lysate; IP buffer (25 mM Tris-HCl pH 7.4, 10 mM KCl, 1.5 mM MgCl2, 1 mM EDTA, 1 mM EGTA, 150 mM NaCl, 0.5% NP-40); primary antibody or IgG control with protein-G beads overnight at 4 °C; western blot; cells with or without irradiation (day 7), WT, ARL3-/- or ARL13B-deficient cells; remark: listed apart in the source
[7] = molecular target: T2, SENP1 (SUMO protease), endogenous (human (endogenous in RCTE)) (UniProt Q9P0U3); assay: as above
T2 sequence: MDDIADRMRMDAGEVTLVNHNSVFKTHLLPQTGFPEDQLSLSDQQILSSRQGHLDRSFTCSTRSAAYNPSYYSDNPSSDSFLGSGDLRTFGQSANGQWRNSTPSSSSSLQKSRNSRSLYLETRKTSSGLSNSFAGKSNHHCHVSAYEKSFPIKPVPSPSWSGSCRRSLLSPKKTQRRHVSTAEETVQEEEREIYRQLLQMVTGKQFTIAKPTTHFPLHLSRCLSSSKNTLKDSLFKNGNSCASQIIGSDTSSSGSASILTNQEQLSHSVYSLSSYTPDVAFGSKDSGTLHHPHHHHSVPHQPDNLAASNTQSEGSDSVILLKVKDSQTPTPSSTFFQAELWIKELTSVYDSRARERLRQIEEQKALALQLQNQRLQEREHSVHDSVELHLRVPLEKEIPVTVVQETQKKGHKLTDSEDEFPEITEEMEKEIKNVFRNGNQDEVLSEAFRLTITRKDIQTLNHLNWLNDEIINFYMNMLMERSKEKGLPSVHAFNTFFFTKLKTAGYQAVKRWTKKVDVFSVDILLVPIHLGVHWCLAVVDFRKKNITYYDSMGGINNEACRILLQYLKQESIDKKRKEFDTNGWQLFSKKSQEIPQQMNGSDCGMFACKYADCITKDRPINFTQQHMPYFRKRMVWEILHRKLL

Molecule: UBC9 (SUMO-conjugating enzyme), endogenous (from UniProt P63279 1-158)
binding [2]: binds

Molecule: ARL3, overexpressed in 293T cells (from UniProt P36405 1-182)
binding [3]: binds

Molecule: Myc-ARL3 wild type, overexpressed in RCTE cells (from UniProt P36405 1-182)
binding [4]: binds

Next, values leading:

binding [1]: binds
Molecule: ARL3 (ciliary GTPase), endogenous (from UniProt P36405 1-182)

binding [5]: binds
binding [6]: binds
binding [7]: binds
B1: FBF1 (transition fiber protein), endogenous (protein, UniProt Q8TES7-6 1-1148)
chain: T1 sequence

binding [3]: binds
B2: FBF1, expressed in 293T cells (protein, UniProt Q8TES7-6 1-1148)
chain: T1 sequence
